At least one structure is not confirmed: it was looked up by name or label, or the drawing left a doubt.
What was measured:
[1] = test system: caspases 3 and 7; experiment: Fluorimetry-based caspase-3/7 activity assay in MINO cells; format: cell-based; settings: nanomolar concentrations, 24 h treatment, vs untreated cells
[2] = test system: MINO cells; experiment: Immunoblotting analysis of apoptotic proteins in MINO cells; format: cell-based
[3] = test system: caspases 3 and 7; experiment: Fluorimetry-based caspase-3/7 activity assay in UPF1H cells; format: cell-based; settings: nanomolar concentrations, 24 h treatment, vs untreated cells
[4] = test system: mantle cell lymphoma MINO cells; experiment: MINO lymphoma xenograft: immunoblotting of removed tumors (pharmacodynamics); format: in vivo, mice; settings: 24 hours after administration
[5] = test system: mantle cell lymphoma MINO cells; experiment: MINO lymphoma xenograft in immunodeficient mice: tumor growth and survival; format: in vivo
[6] = test system: MINO; experiment: Cell cycle profile, BrdU/propidium iodide flow cytometry, MINO cells; format: cell-based; settings: 24 h
[7] = test system: UPF1H; experiment: Cell cycle profile, BrdU/propidium iodide flow cytometry, UPF1H cells; format: cell-based; settings: 24 h
[8] = test system: MINO cell lines; experiment: Immunoblotting of phosphorylation of CDK substrates (Rb, RNA polymerase II) in MINO cells; format: cell-based

CC(C)c1n[nH]c2c(NCc3ccc(-c4ccccn4)cc3)nc(SCCN)nc12 [Compound 4.9, 5-(2-Amino-1-ethyl)thio-3-isopropyl-7-[4-(2-pyridyl)benzyl]amino-1(2)H-pyrazolo[4,3-d]pyrimidine]
caspase-3/7 activity [1]: potent dose-dependent activation of the caspases
PARP-1 cleavage (immunoblot) [2]: appearance of the caspase-3-cleaved PARP-1 fragment at 89 kDa
level of anti-apoptotic protein Bcl-2 [2]: did not show a decrease
level of anti-apoptotic protein Bcl-xl [2]: did not show a decrease
level of anti-apoptotic protein Mcl-1 [2]: dose-dependent decrease
level of anti-apoptotic protein XIAP [2]: dose-dependent decrease
caspase-3/7 activity [3]: potent dose-dependent activation of the caspases
Rb phosphorylation in tumors ([4]; 10 mg/kg i.v.): reduce Rb phosphorylation at several phosphosites
apoptosis in tumors (cleaved PARP and caspase's fragments) ([4]; 10 mg/kg i.v.): able to activate apoptosis
expression level of Mcl-1 in tumors ([4]; i.v.): clearly affected the expression level
phosphorylation of RNA polymerase II in tumors ([4]; i.v.): decrease in the phosphorylation of RNA polymerase II
survival of tumor-bearing mice ([5]; i.p., 1× weekly, 5 mg/kg): significantly prolonged survival
tumor growth ([5]; i.v. dosing (10 mg/kg), after 15 days, compared to control mice): significantly suppressed tumor growth
sub-G1/apoptotic cells [6]: dose-dependent increase
cell cycle phase distribution ([6]; nanomolar concentration): accumulated cells in G1 and G2/M phases
population of actively-replicating cells (BrdU positive) ([6]; nanomolar concentration): potently reduced population of actively-replicating cells
sub-G1/apoptotic cells [7]: dose-dependent increase
cell cycle phase distribution ([7]; nanomolar concentration): accumulated cells in G1 and G2/M phases
population of actively-replicating cells (BrdU positive) ([7]; nanomolar concentration): potently reduced population of actively-replicating cells
phosphorylation of retinoblastoma protein [8]: decrease in the phosphorylation of retinoblastoma protein
phosphorylations (RNA polymerase II, retinoblastoma protein) at 12.5 nM ([8]; concentration of 12.5 nM): Significant decrease
phosphorylation at serines 2 and 5 of RNA polymerase II ([8]; dose and time-dependent manner): rapid decrease

— patent US11186583B2, “5-alkylthio-7-[(4-arylbenzyl)amino]-1(2)H-pyrazolo[4,3-d]pyrimidines for treatment of lymphoma” (UNIVERZITA PALACKEHO V OLOMOUCI, priority 2018, dated 2021)
